Reference: paper PMC3629710

Sequences of proteins named here, by UniProt entry; tags and fusion partners are left off. A change or cut given only in a name is not applied to a line headed by its entry. Residues count along the entry.
UniProt Q99961, residues 306-365: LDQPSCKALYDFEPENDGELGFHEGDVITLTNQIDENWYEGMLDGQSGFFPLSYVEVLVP
UniProt P00519, residues 61-121: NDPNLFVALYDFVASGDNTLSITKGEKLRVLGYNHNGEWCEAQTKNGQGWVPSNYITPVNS
UniProt Q14247, residues 492-550: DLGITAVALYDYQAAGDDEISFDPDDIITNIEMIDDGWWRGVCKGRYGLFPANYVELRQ
UniProt O00459, residues 4-80: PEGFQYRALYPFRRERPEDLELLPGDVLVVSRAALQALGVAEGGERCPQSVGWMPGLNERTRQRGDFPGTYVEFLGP
UniProt P78352, residues 428-498: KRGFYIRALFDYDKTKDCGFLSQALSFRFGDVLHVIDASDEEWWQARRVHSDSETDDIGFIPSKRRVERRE
UniProt Q92968, residues 272-336: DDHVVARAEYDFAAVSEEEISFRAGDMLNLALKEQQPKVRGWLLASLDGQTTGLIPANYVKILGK
UniProt P56945: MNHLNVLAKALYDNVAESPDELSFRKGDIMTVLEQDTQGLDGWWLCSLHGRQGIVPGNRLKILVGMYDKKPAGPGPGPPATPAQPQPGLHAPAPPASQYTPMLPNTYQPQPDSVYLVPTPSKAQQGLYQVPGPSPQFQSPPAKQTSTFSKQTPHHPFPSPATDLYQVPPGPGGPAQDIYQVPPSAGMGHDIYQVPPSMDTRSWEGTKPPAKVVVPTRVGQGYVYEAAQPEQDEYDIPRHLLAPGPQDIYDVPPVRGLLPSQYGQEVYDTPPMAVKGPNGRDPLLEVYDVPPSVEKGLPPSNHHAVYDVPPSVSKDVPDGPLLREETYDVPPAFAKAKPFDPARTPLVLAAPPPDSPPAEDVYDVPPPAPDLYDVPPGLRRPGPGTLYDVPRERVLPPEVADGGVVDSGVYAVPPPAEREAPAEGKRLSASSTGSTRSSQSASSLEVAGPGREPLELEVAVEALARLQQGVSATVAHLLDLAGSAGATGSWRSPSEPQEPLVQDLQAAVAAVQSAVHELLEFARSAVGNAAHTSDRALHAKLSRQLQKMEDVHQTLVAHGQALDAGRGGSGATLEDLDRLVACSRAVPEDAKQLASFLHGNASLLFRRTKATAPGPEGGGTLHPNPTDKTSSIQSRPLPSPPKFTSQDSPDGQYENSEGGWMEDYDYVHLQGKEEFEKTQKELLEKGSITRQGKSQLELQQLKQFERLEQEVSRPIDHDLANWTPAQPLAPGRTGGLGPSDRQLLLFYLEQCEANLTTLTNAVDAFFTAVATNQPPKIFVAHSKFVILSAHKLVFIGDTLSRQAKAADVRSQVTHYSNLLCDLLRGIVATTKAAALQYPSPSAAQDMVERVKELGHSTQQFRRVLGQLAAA

Legend:
Assay in all cases: peptide or protein array; Panomics SH3 Domain Arrays I and II: immobilised SH3 domains fused to GST, hybridised with purified N-terminally His-tagged SH3-b domain, detected with peroxidase-conjugated anti-His antibody and ECL; both purified
[1] = molecular target: SH3-1 (SH3-containing GRB2-like protein 1) SH3 domain (SH3 domain array) (UniProt Q99961)
[2] = molecular target: T1, M3KA SH3 domain (SH3 domain array) (UniProt Q02779)
T1 sequence: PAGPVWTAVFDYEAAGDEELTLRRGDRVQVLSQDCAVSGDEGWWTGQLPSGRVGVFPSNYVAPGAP

[3] = molecular target: Abl SH3 domain (SH3 domain array) (UniProt P00519)
[4] = molecular target: T2, amphiphysin SH3 domain (SH3 domain array) (UniProt P49418)
T2 sequence: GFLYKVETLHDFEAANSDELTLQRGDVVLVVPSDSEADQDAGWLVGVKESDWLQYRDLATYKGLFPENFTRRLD

[5] = molecular target: T3, NE-DLG SH3 domain (SH3 domain array) (UniProt Q92796)
T3 sequence: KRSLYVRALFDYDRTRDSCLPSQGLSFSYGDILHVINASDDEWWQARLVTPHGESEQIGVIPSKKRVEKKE

[6] = molecular target: cortactin SH3 domain (SH3 domain array) (UniProt Q14247)
[7] = molecular target: T4, BIN1 SH3 domain (SH3 domain array) (UniProt O00499)
T4 sequence: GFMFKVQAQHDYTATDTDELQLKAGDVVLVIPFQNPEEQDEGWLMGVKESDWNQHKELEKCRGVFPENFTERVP

[8] = molecular target: PI3-ß SH3 domain (SH3 domain array) (UniProt O00459)
[9] = molecular target: PSD95 SH3 domain (SH3 domain array) (UniProt P78352)
[10] = molecular target: PEXD SH3 domain (SH3 domain array) (UniProt Q92968)

## His-tagged-p130Cas-P2 domain (from UniProt P56945) (domain or fragment)
[1]
  binding: binds
[2]
  binding: binds weakly
[3]
  binding: binds weakly
[4]
  binding: binds weakly
[5]
  binding: binds
[6]
  binding: binds
[7]
  binding: binds weakly
[8]
  binding: binds
[9]
  binding: binds
[10]
  binding: binds

These are yes or no findings as the source states them, for the method shown. Binding calls can cover weak binding; strength is not graded here.
